From patent publication US9278097B2, “Prophylaxis and/or treatment of portal hypertension” (Universitatsklinikum Freiburg, priority 2003, dated 2016)
At least one compound was matched to its structure with a doubt left.

What was measured:
Assay type in all cases: in vivo, human
healthy volunteers = assay: Doppler sonography of liver haemodynamics before and 1 h after oral Vardenafil, healthy volunteers; settings: 10 mg oral, 1 h after administration
[1] = test system: patients having portal hypertension (origin: liver cirrhosis in the status of Child A); assay: Doppler sonography of liver haemodynamics before and 1 h after oral Vardenafil, patients
Description: In a further study, 16 healthy volunteers and 15 patients having portal hypertension (origin: liver cirrhosis in the status of Child A) were subjected to the following treatment:
In both the volunteers and the patients with empty stomach (10 hours of food leave), firstly the pulse rate and blood pressure under lying condition and subsequently the parameters of liver haemodynamics were measured by Doppler sonography.
The portal vein pressure is derived from the values obtained from the application of the apparatus Elegra from Siemens having a 3.5 MHz sectorial scanner (K. Haag et al., Am. J. Roentgenol 1999; 172: 631-635). Each measurement was carried out three times in total. The mean value from all three measurements was used. The measurements were carried out in the resting expiratory position. When measuring the flows and the flow volumina, the sonic angle lied below 60°. The sectional plane was basically chosen such that the vessel will be illustrated in its longitudinal route.
Flow measurements in the Vena portae as well as in their intrahepatic main stems. The determination of the flow volume in the portal vein, the Vena lienalis and the Vena mesenterica was carried out by Doppler-sonography, as measured by the options of the apparatus and by calculation through the formula: flow=π·d^2/4·Vmax2·60, wherein d is indicated in cm and Vmax is indicated in cm/s. Vena Lienalis:
Sectional illustration in the medium upper stomach, measurement a few centimeters below the furcation, determination of the Pourcelot Index (Ri=(Vmax[sys]−Vmax[diast])/Vmax[sys]).
Each volunteer obtained 10 mg Vardenafil orally. After one hour, the blood pressure and the pulse rate in lying condition were measured, 10 ml serum were withdrawn for the level control of Vardenafil, and a new measurement of the liver haemodynamics was carried out by Doppler-sonography (as in the case of the above-mentioned initial measurement).
A final examination for measuring the liver haemodynamics after the lapse of the effect of Vardenafil was carried out after latency of at least 24 hours after medicament administration.

[2] = test system: patients, who had a pathological collateral or detour circulation, as originally caused by liver cirrhosis; assay: Doppler sonography of flow in the porto-systemic detour circulation before and after oral Vardenafil; settings: two patients, single oral administration of 10 mg
Description: Hereby, before and after a single oral administration of 10 mg Vardenafil, the flow in the porto-systemic detour circulation was measured by Doppler-sonography: once in a patient having V. coronaria ventriculi as well as oesophagus varices, and another time in a patient having re-opened V. umbilicalis.

[3] = test system: patient having liver cirrhosis due to a chronic Hepatitis C; assay: Invasive measurement of wedged hepatic vein pressure (portal vein pressure) by balloon catheter; settings: one patient, 10 minutes after 10 mg oral; 31 mm Hg prior to administration
Description: In a patient having liver cirrhosis due to a chronic Hepatitis C, the wedged hepatic vein pressure, which can be equated with the portal vein pressure, was measured invasively. For this, a balloon catheter was introduced through the Vena jugularis interna into a small hepatic vein under X-ray control. Then, the free hepatic vein pressure may be measured, when the tip of the catheter lies freely in the lumen of the small vein. When the balloon is dilated (the diameter of this small hepatic vein amounts to a few mm), a congestion pressure is built-up at the tip of the catheter, corresponding to the portal vein pressure. In the tested patient, the portal vein pressure prior to the oral administration of a medicament was at 31 mm Hg.

[4] = 10 mg oral, 1 h after administration, FIG. 3

Compound: CCCc1nc(C)c2c(=O)[nH]c(-c3cc(S(=O)(=O)N4CCN(CC)CC4)ccc3OCC)nn12 [Vardenafil]
- Portal vein diameter (change) (healthy volunteers; normal volunteers): remains constant
- Portal flow (change) (healthy volunteers; volunteers, FIG. 2): increases
- Arterial blood flow through the liver (change) [1, 4]: not enhanced
- Ri-values for A. hepatica (change) [1, 4]: increase
- Ri-values for Truncus coeliacus (change) [1, 4]: increase
- Ri-values of the A. mesenterica superior (change) [1, 4]: remain unaffected
- Duration of effect on portal vein flow ([1]; individual patient, continuous measurement after 10 mg oral, FIG. 4): at least one hour
- Portal vein diameter (change) ([1]; patients, 10 mg oral, 1 h after administration, FIG. 1): slightly increases
- Portal flow (change) ([1]; patients, 10 mg oral, 1 h after administration, FIG. 2): even more pronounced
- Total flow in the portal vein (change) [2]: increased
- Portal vein pressure (wedged hepatic vein pressure), change [3]: tendency to decrease
